Consider two molecules from US9839640B2, “Methods of treating eye diseases associated with inflammation and vascular proliferation” (OccuRx Pty Ltd, priority 2010, dated 2017).

Type in all cases: in vivo, rat
The nature of data set [1]: Animal characteristics (32 weeks study), STZ diabetic (mRen-2) 27 rats treated with FT011. On the procedure: (§1) Ninety, six-week old female, heterozygous (mRen-2) 27 rats (St. Vincent's Hospital Animal House, Melbourne, Australia) were assigned to receive either 55 mg/kg of streptozotocin (STZ) (Sigma, St. Louis, USA) diluted in 0.1 M citrate buffer, pH 4.5 or citrate buffer alone (non-diabetic control) by tail vein injection following an overnight fast. In short term study, rats were randomly assigned to receive (n=10/group) treatment with either FT011 (100 mg/kg bid gavage) or vehicle for 8 weeks. Non-diabetic animals (n=10) served as controls. In the long term study, at 16 weeks of STZ diabetes rats were randomly assigned to either treatment (n=15/group) with, FT011 (50 mg/kg/day BID), FT011 (100 mg/kg BID) or no treatment for a further 16 weeks. Non-diabetic animals (n=15) served as controls. Each week, rats were weighed and their blood glucose levels were measured (Accu-check Advantage II Blood Glucose Monitor, Roche Diagnostics, USA) and only STZ-treated animals with blood glucose >15 mmol/L were considered diabetic. Every 4 weeks, SBP was determined in preheated conscious rats via tail-cuff plethysmography using a non-invasive blood pressure (NIBP) controller and Powerlab (AD instruments, NSW, Australia). Haemoglobin A1c (HbA1c) was measured by HPLC at the end of the study in the Department of Pathology, St Vincent's Hospital. Diabetic rats received a daily injection of insulin (2-4 units intraperitoneally; Humulin NPH, Eli Lilly and Co., Indianapolis, Ind.) to reduce mortality and to promote weight gain.

Data set [2] can be described thus: Animal characteristics (8 weeks study), STZ diabetic (mRen-2) 27 rats treated with FT011. The following applies: FT011 200 mg/kg/day (100 mg/kg bid gavage). On the procedure: as §1, with “Diabetic rats received a daily injection of insulin (2-4 units intraperitoneally; Humulin NPH, Eli Lilly and Co., Indianapolis, Ind.) to reduce mortality and to promote weight gain.” left out

A short description of data set [3]: Animal characteristics, STZ diabetic (mRen-2) 27 rats treated with FT061. The following applies: FT061 100 mg/kg/day gavage, 8 weeks. As to the method: Sixty, six-week old female, heterozygous (mRen-2) 27 rats (St. Vincent's Hospital Animal House, Melbourne, Australia) were assigned to receive either 55 mg/kg of streptozotocin (STZ) (Sigma, St. Louis, USA) diluted in 0.1 M citrate buffer, pH 4.5 or citrate buffer alone (non-diabetic control) by tail vein injection following an overnight fast. Rats were randomly assigned to receive (n=15/group) treatment with either FT061 (100 mg/kg/day gavage) or vehicle for 8 weeks. Non-diabetic animals (n=15) served as controls. Each week, rats were weighed and their blood glucose levels were measured (Accu-check Advantage II Blood Glucose Monitor, Roche Diagnostics, USA) and only STZ-treated animals with blood glucose >15 mmol/L were considered diabetic. Every 4 weeks, SBP was determined in preheated conscious rats via tail-cuff plethysmography using a non-invasive blood pressure (NIBP) controller and Powerlab (AD instruments, NSW, Australia). Diabetic rats received a daily injection of insulin (2-4 units intraperitoneally; Humulin NPH, Eli Lilly and Co., Indianapolis, Ind.) to reduce mortality and to promote weight gain.

The mark [4] stands for this setting: FT011 200 mk/kg/day, 32 weeks study.

In the case of `C#CCOc1ccc(/C=C/C(=O)Nc2ccccc2C(=O)O)cc1OC` [FT011], the SBP in data set [1] (FT011 100 mk/kg/day, 32 weeks study) is listed as 176 ± 10 mmHg; in data set [1] (setting [4]), 170 ± 7 mmHg; in data set [2] (tail-cuff), 190 ± 14 mmHg. Moreover, the “Body Weight” value in data set [1] (FT011 100 mk/kg/day, 32 weeks study (treated from week 16 for 16 weeks)) came to 322 ± 8 g; in data set [1] (setting [4]), 313 ± 9 g; in data set [2] (mean ± SEM), 278 ± 12 g.

The molecule `O=C(/C=C/c1ccc(OC(F)F)c(OC(F)F)c1)Nc1ccccc1C(=O)O` [FT061] returned an SBP in data set [3] of 178 ± 4 mmHg. Moreover, the “Body Weight” value in data set [3] (P < 0.05 versus control) amounted to 282 ± 4 g.
